# From PubChem BioAssay AID1487 (National Center for Advancing Translational Sciences (NCATS), 2009)
# The list shows a part of the results. Shown are side measurements of this screen, not its main read-out; they come without a call. Compounds called inactive in the main read-out are mostly missing here. The note in brackets gives the kind of curve behind each potency; many fits are weak.
# Assay: qHTS Assay for Modulators of Lamin A Splicing
# Details: HeLa LMNA splicing GFP/RFP minigene ratio, 48 h
# In short: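 Read-out is the ratio of GFP to DsRed2 object intensity, acquired by 488 nm laser-scanning cytometry on HeLa lamin A-EGFP minigene reporter cells. Compound incubation 48 hrs at 37 °C in Opti-MEM with 2% FBS; DMSO 0.5% final.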
# [1] = measured here: GFP splicing reporter channel
# [2] = measured here: RFP viability control channel
SMILES,AC50 [1],AC50 [2]
COc1ccc(C2CC(=O)c3c([nH]c(C(=O)OC(C)C)c3C)C2)cc1OC (stereo unspecified),"0.0224 µM [falling, full curve, poor fit]",–
COc1cc(-c2cc(C(=O)Nc3ccccc3N3CCOCC3)c3ccccc3n2)cc(OC)c1OC,–,"3.98 µM [rising, full curve, poor fit]"
Cc1ccc(C(=O)N2CCN=C2SCc2ccc([N+](=O)[O-])cc2)cc1,"35.5 µM [rising, single point]","35.5 µM [rising, single point]"
O=S1(=O)CCN2C(=N1)SC1=C2CCN(Cc2ccccc2)C1,–,"0.0794 µM [rising, full curve, poor fit]"
Cc1ccc(C(=O)O)cc1NC(=S)NC(=O)C(c1ccccc1)c1ccccc1,"2.82 µM [falling, partial curve]","3.98 µM [falling, partial curve]"
Cn1c(Cc2cccs2)nnc1SCC(=O)N1CCCc2ccccc21,"22.4 µM [falling, single point]","25.1 µM [falling, single point]"
Fc1ccc(CNC(=S)NC2CCCC2)cc1,"12.6 µM [rising, single point]","25.1 µM [rising, single point]"
Clc1ccc(OCc2nc(-c3ccccn3)n[nH]2)cc1,–,"22.4 µM [rising, single point]"
OC(COc1ccc2ccccc2c1Br)Cn1cnc(-c2ccccc2)c1 (stereo unspecified),"25.1 µM [rising, single point]","15.8 µM [rising, single point]"
C=C(C)C1CC=C(C)/C(=N/NC(=S)Nc2ccccc2)C1 (stereo unspecified),–,"3.16 µM [rising, full curve]"
CCN(CC(=O)Nc1ccccc1OC)C(=O)COc1ccc2ccccc2c1,–,"35.5 µM [rising, single point]"
O=C(Nc1ccccc1)c1ccccc1NS(=O)(=O)c1ccc(Cl)s1,–,"2.24 µM [rising, partial curve]"
Cc1cc(C(=O)Nc2cc(C(C)(C)C)on2)c(C)o1,"0.00891 µM [falling, full curve, poor fit]","0.01 µM [falling, full curve, poor fit]"
CC(=O)N1CCc2cc(S(=O)(=O)N3c4ccccc4CC3C)ccc21 (stereo unspecified),–,"11.2 µM [rising, single point]"
CC(C)C(=O)NC(c1cccs1)c1cc([N+](=O)[O-])c2cccnc2c1O (stereo unspecified),"35.5 µM [falling, single point]","28.2 µM [falling, single point]"
COc1ccc(N2CCN(C(=O)c3c4c(nc5ccccc35)C(=O)N(C3CCCCC3)C4)CC2)cc1,"0.0891 µM [falling, partial curve]",–
CCC1CSC(Nc2ccc(C(=O)/C=C/c3cccc(C)c3)cc2)=N1 (stereo unspecified),"35.5 µM [falling, single point]","35.5 µM [falling, single point]"
COc1cccc(-c2cc(C(=O)N3CCN(c4ncccn4)CC3)c3ccccc3n2)c1,–,"31.6 µM [rising, single point]"
Cc1cc(C)n2nc(SCc3nnc(-c4ccc(F)cc4)o3)nc2n1,–,"0.0708 µM [rising, full curve, poor fit]"
CCOc1[nH]n(-c2ccc(Cl)cc2)c(=O)c1C=Nc1ccc(O)cc1,–,"11.2 µM [falling, partial curve]"
CC(=O)N1CCc2cc(S(=O)(=O)NCCC(=O)NCCc3ccc(C)cc3)ccc21,–,"22.4 µM [rising, single point]"
CC(C)c1ccc(/C=C/C(=O)NC2CCCCC2)cc1,"0.708 µM [rising, full curve, poor fit]",–
CSc1ccc(C2c3[nH]c4ccccc4c3CCN2C(=O)CCC2CCCC2)cc1 (stereo unspecified),"6.31 µM [falling, full curve]",–
COC(=O)c1ccc(CNCC(=O)Nc2ccc(C(=O)OC)cc2)cc1,–,"10 µM [rising, partial curve, poor fit]"
COc1cc(-c2cc(=O)c3ccccc3o2)ccc1O,"35.5 µM [falling, single point]",–
COc1ccc(NC(=O)CC2C(=O)N(C)C(=S)N2CCc2ccccc2F)cc1 (stereo unspecified),"35.5 µM [rising, single point]","20 µM [rising, single point]"
O=C(O)c1ccccc1C(=O)Nc1ccc(S(=O)(=O)NC2CCCCC2)cc1,–,"0.282 µM [rising, full curve, poor fit]"

SMILES,AC50 [1],AC50 [2]
O=C(CCl)Nc1ccc(N=Nc2ccccc2)cc1,"35.5 µM [falling, single point]","15.8 µM [rising, single point]"
COCCCNC(=S)N(Cc1ccccc1)Cc1ccccc1,"10 µM [rising, partial curve, poor fit]",–
Cc1ccc(C2c3c(-c4ccccc4O)n[nH]c3C(=O)N2Cc2ccncc2)cc1 (stereo unspecified),–,"10 µM [rising, partial curve, poor fit]"
CC(C)N=c1scc(-c2ccco2)n1/N=C/c1ccc(O)c(O)c1,"3.55 µM [rising, single point]","25.1 µM [falling, single point]"
O=C(NNc1ccc(C2CCCCC2)cc1)C(O)(c1ccccc1)c1cccs1 (stereo unspecified),"17.8 µM [falling, single point]","12.6 µM [falling, single point]"
Cc1cccc(Cc2c(C)nc3nc(SCc4cccc(F)c4)nn3c2C)c1,"0.0112 µM [falling, full curve, poor fit]",–
COc1ccc(N2CCN(CC(O)c3c[nH]c4ccc(OC)cc34)CC2C)cc1 (stereo unspecified),"0.0251 µM [falling, single point]",–
CCOc1nc(SCCOc2ccc(C)cc2)nc(N(C)C)n1,"5.01 µM [rising, partial curve]","11.2 µM [rising, partial curve]"
COc1ccc(/C=N/NC(=O)c2ccccc2)cc1OS(=O)(=O)c1ccccc1,"5.62 µM [rising, full curve]","7.94 µM [rising, partial curve, poor fit]"
COc1ccccc1CNC(=O)C(=O)NCC(c1cccnc1)N1CCN(c2ccc(F)cc2)CC1 (stereo unspecified),"35.5 µM [falling, partial curve]","28.2 µM [falling, partial curve]"
O=C(O)c1ccc(N=Nc2c(O)[nH]c3ccccc23)cc1,"7.94 µM [falling, partial curve, poor fit]","8.91 µM [falling, partial curve, poor fit]"
CNC(=O)C(=O)NCCN1CCN(C(=O)c2ccc([N+](=O)[O-])cc2)CC1,–,"8.91 µM [falling, partial curve, poor fit]"
CC(NC(=O)COc1ncnc2cc([N+](=O)[O-])ccc12)c1ccccc1 (stereo unspecified),"5.62 µM [rising, single point]",–
O=C(CN(c1cccc(C(F)(F)F)c1)S(=O)(=O)c1ccccc1)Nc1cccc(Cl)c1,"35.5 µM [falling, single point]","20 µM [falling, single point]"
NC(=O)C1CCN(Cc2nc(-c3cccs3)no2)CC1,"0.562 µM [rising, full curve]",–
COCCN1CSC(=S)N(Cc2ccco2)C1,"3.98 µM [falling, full curve]","28.2 µM [falling, single point]"
NS(=O)(=O)c1ccc(NC(=O)CN2CCN(c3ccc(F)cc3)CC2)cc1,–,"0.141 µM [falling, full curve, poor fit]"
Cc1cccn2c(=O)cc(COc3ccc(NC(=O)C(C)Oc4ccccc4)cc3)nc12 (stereo unspecified),"22.4 µM [falling, single point]","35.5 µM [falling, single point]"
N#CC(C(=O)c1ccc(S(=O)(=O)N2CCCCCC2)cc1)c1nc2ccccc2[nH]1 (stereo unspecified),–,"5.01 µM [rising, full curve]"
CC(=O)c1sc(NC(=O)COc2ccc(C(C)C)c(C)c2)nc1C,"0.891 µM [falling, full curve, poor fit]",–
COc1cc(C=O)ccc1OCCCCOc1ccccc1[N+](=O)[O-],"0.501 µM [rising, full curve, poor fit]",–
S=C(c1ccc(-c2cc(Cl)ccc2Cl)o1)N1CCCCC1,"1.58 µM [falling, partial curve]","2 µM [falling, partial curve]"
COc1ccc(-n2c(SCC(=O)NC3CCCCC3)nc3c([nH]c4ccccc43)c2=O)cc1,–,"12.6 µM [falling, single point]"
Cc1ccc(S(=O)(=O)C(CNC(=O)COc2ccc(Cl)cc2)c2ccco2)cc1 (stereo unspecified),"28.2 µM [falling, partial curve, poor fit]","12.6 µM [falling, partial curve, poor fit]"
Cc1ccc(CNC(=O)c2cccc(NC(=O)N3CCSc4ncccc43)c2)cc1,"12.6 µM [falling, single point]","4.47 µM [falling, partial curve, poor fit]"
COc1ccc(CC(=O)N2CCC(Nc3nc4ccccc4n3Cc3ccc(F)cc3)CC2)cc1,–,"35.5 µM [rising, single point]"
O=C1c2ccccc2NC2(CCCC2)N1NS(=O)(=O)c1ccccc1,"1.41 µM [falling, full curve, poor fit]",–

# One compound at a time, as listed above.
# `Cc1cc(C)n2nc(SCc3nnc(-c4ccc(F)cc4)o3)nc2n1` reads AC50 [2]: 0.0708 µM [rising, full curve, poor fit]
# `O=C(CN(c1cccc(C(F)(F)F)c1)S(=O)(=O)c1ccccc1)Nc1cccc(Cl)c1` reads AC50 [1]: 35.5 µM [falling, single point]; AC50 [2]: 20 µM [falling, single point]
# `NS(=O)(=O)c1ccc(NC(=O)CN2CCN(c3ccc(F)cc3)CC2)cc1` reads AC50 [2]: 0.141 µM [falling, full curve, poor fit]
# `CCOc1[nH]n(-c2ccc(Cl)cc2)c(=O)c1C=Nc1ccc(O)cc1` reads AC50 [2]: 11.2 µM [falling, partial curve]
